Hit rate of the full screen: of about 320,000 compounds, about 22,000 (6.9%) were called active. Inconclusive means that the source gave no clear call. Such entries were picked first, then a sample of the others. Calls come from the whole dose curve; as a rule, active = well fitted inhibition curve with a large enough effect; inconclusive = small, poorly fitted or top-dose-only effect, or another doubt; inactive = no such curve, though single readings can be large or run the other way. A potency beside an inconclusive call is a rough fit, not a confirmed value.
Assay: Primary qHTS for delayed death inhibitors of the malarial parasite plastid, 96 hour incubation
Conditions: P. falciparum luciferase reporter growth; series mostly up to 28.7 µM
Procedure, shortened: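 Compounds incubated with erythrocytes infected by luciferase-expressing P. falciparum (2% hematocrit, 0.05% parasitemia final) for 96 hours, 37 C in 5% CO2. Growth inhibition scored as decreased luciferase luminescence.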
Potency is the fitted concentration of half-maximal effect.

Row | Compound | Potency
1 | CCOc1ccc(-n2nc3cc(C)c(N)cc3n2)cc1 | inconclusive: 18.5 µM [inhibitor, single point]
2 | Cc1ccc(S(=O)(=O)N(C)c2ccc(OCc3cccc(C)c3)cc2)cc1 | inconclusive: 11.7 µM [inhibitor, single point]
3 | O=c1[nH]sc2cc(F)ccc12 | inconclusive: 1.31 µM [inhibitor, single point]
4 | COc1ccc(-c2cc(=O)oc3cc(OC(C)C(=O)NCC4CCC(C(=O)O)CC4)ccc23)cc1 (stereo not given) | inconclusive: 13.1 µM [inhibitor, partial curve, poor fit]
5 | COc1cc(/C=C/C(=O)c2ccc3c(c2)OCO3)cc(Cl)c1O | inconclusive: 20.8 µM [inhibitor, partial curve, poor fit]
6 | COc1ccc(C(CNc2ccc(C(F)(F)F)cn2)N(C)C)cc1OC (stereo not given) | inconclusive: 18.5 µM [inhibitor, single point]
7 | CN(Cc1ccco1)Cc1ccc(O)c2ncccc12 | active: 10.4 µM
8 | COc1ccccc1-c1cc(C(F)(F)F)n2ncc(S(=O)(=O)c3ccccc3)c2n1 | inconclusive: 2.62 µM [inhibitor, partial curve, poor fit]
9 | CC1Sc2ccc(S(=O)(=O)N(C)Cc3ccccc3)cc2NC1=O (stereo not given) | inconclusive: 10.4 µM [inhibitor, single point]
10 | Cc1nccc(-c2cccc(NC(=O)Nc3ccc(Cl)cc3)c2)n1 | inconclusive: 9.28 µM [inhibitor, single point]
11 | CCOc1ccc(C(C)=O)cc1COC(=O)CN1C(=O)NC2(CCCC2)C1=O | active: 5.22 µM
12 | Cn1c(SCC(=O)Nc2ccc(Cl)cc2)nnc1C1CC1 | inconclusive: 4.65 µM [inhibitor, partial curve, poor fit]
13 | COCCNC(=O)c1nn2cccnc2c1Cl | inactive
14 | Cc1ccc(OCC(=O)Nc2nnc(C3CCCO3)s2)c(Br)c1 (stereo not given) | inconclusive: 2.94 µM [inhibitor, single point]
15 | Cc1ccc([C@H]2C(C#N)=C(N)Oc3cc(C)oc(=O)c32)o1 | inconclusive: 11.7 µM [inhibitor, partial curve, poor fit]
16 | O=C(O)C[C@@H]1C(=O)O[C@@H]2C(COC(=O)c3cc(O)c(O)c(O)c3)O[C@@H](OC(=O)c3cc(O)c(O)c(O)c3)[C@@H](OC(=O)c3cc(O)c(O)c4c3[C@H]1[C@H](O)C(=O)O4)[C@H]2OC(=O)c1cc(O)c(O)c(O)c1 (stereo not given in full) | active: 2.94 µM
17 | O=C(NCc1ccccc1)c1nc[nH]c1C(=O)N1CCc2ccccc2C1 | inconclusive: 13.1 µM [inhibitor, single point]
18 | CCn1nc(C)c(/C=N/NC(=O)Cc2ccc(Cl)cc2)c1C | inactive
19 | CC(C)(C)c1cc(-n2ccnc2)n2ncc(-c3ccc(Cl)cc3)c2n1 | inactive
20 | COC(=O)NNC(=O)c1ccc(C(C)(C)C)cc1 | inactive
21 | COc1ncnc2sc(-c3ccccc3)cc12 | inactive
22 | CC(=O)Nc1cccc2c1[n+]([O-])c(C)c(C)[n+]2[O-] | inconclusive: 8.28 µM [inhibitor, partial curve]
23 | O=S(=O)(N/N=C\C=C\c1ccccc1)c1ccc(Br)cc1 | inactive
24 | CCOc1ccc(S(=O)(=O)NCc2ccc3c(c2)OCO3)cc1 | inconclusive: 0.233 µM [inhibitor, partial curve, poor fit]

Row | Compound | Potency
25 | COc1ccccc1N(C)S(=O)(=O)c1ccc(C(=O)N2CCCc3ccccc32)cc1 | inconclusive: 18.5 µM [inhibitor, single point]
26 | O=S(=O)(c1cc(Cl)c(Cl)cc1Cl)N1CCN2CCCC2C1 (stereo not given) | inactive
27 | Cc1noc(C)c1C(=O)Nc1ccccc1N1CCCC1 | inactive
28 | C=CCNc1nc(Cl)nc(Nc2ccc([N+](=O)[O-])cc2)n1 | active: 2.33 µM
29 | O=C(Nc1ccc(N2CCOCC2)c(S(=O)(=O)Nc2ccc(Cl)cc2)c1)c1cnccn1 | inconclusive: 10.4 µM [inhibitor, single point]
30 | CCCOc1cccc(-c2cc(-c3n[nH]c(=S)n3CC)c3ccccc3n2)c1 | active: 3.7 µM
31 | CCOc1ccccc1N1CCN(CC(O)COC2CCCc3ccccc32)CC1 (stereo not given) | inconclusive: 14.7 µM [inhibitor, single point]
32 | O=C(NCCC1=CCCCC1)c1cnsn1 | active: 4.65 µM
33 | CCn1ncc(Br)c1C(=O)Nc1ccc(C(C)C)cc1 | inconclusive: 18.5 µM [inhibitor, single point]
34 | O=C(Nc1nnc(-c2ccccc2Cl)o1)c1cccnc1 | inactive
35 | N/C(Cc1ccc(Cl)c(Cl)c1)=N\OC(=O)c1cccs1 | inconclusive: 0.0117 µM [inhibitor, full curve, poor fit]
36 | COc1ccc(CSc2nnnn2C)cc1F | inconclusive: 16.5 µM [inhibitor, single point]
37 | CCCC(=O)NC(c1ccc(OC)cc1)c1ccc2cccnc2c1O (stereo not given) | inconclusive: 16.5 µM [inhibitor, single point]
38 | CN(C)CCCNC(=O)C(=O)Nc1ccc2c(c1)N(S(=O)(=O)c1cccs1)CCC2 | inconclusive: 11.7 µM [inhibitor, single point]
39 | CCOC(=O)COc1cc(N2C(=O)CSCC2=O)c(Cl)cc1Cl | inconclusive: 0.262 µM [inhibitor, full curve, poor fit]
40 | O=C(CSC(=S)N1CCCC1)N(Cc1nnc(-c2ccccc2Cl)o1)C1CC1 | inconclusive: 18.5 µM [inhibitor, single point]
41 | O=C(Nc1ccc(Br)cc1)c1nn(C23CC4CC(CC(C4)C2)C3)cc1Br | active: 0.185 µM
42 | O=C(Cn1cc(Cl)ccc1=O)c1ccc(Cl)cc1 | inactive
43 | COc1nc(N(C)C)nc(N(OC)S(=O)(=O)c2ccccc2Cl)n1 | inconclusive: 8.28 µM [inhibitor, partial curve, poor fit]
44 | O=C(NCC1CCCCC1)c1ccc(Cl)c(S(=O)(=O)N2CCOCC2)c1 | inconclusive: 5.22 µM [inhibitor, partial curve, poor fit]
45 | CC[C@H](C)[C@@H]1NC(=O)c2cc([N+](=O)[O-])cc(I)c2SC[C@@H](C(N)=O)NC(=O)[C@H](CCCCN)NC1=O | inactive
46 | O=C(COC(=O)Cc1c(F)cccc1Cl)NC(=O)c1ccccc1 | inactive
47 | CCCCn1c(O)c(C(CC)=NCc2cc(OC)cc(OC)c2)c(=O)[nH]c1=O | inconclusive: 18.5 µM [inhibitor, single point]
48 | CN(Cc1nccs1)C(=O)c1ccc2nc(Cc3ccccc3F)oc2c1 | inconclusive: 18.5 µM [inhibitor, single point]

Row | Compound | Potency
49 | COCCCNCCCCSc1ccc(Cl)cc1 | inconclusive: 13.1 µM [inhibitor, partial curve, poor fit]
50 | CCn1c(CC(=O)Nc2ccc(Cl)c(Cl)c2)nnc1SCc1ccc(C)cc1 | inconclusive: 18.5 µM [inhibitor, single point]
51 | CCC(Oc1ccccc1)C(=O)Nc1ncc([N+](=O)[O-])s1 (stereo not given) | inconclusive: 16.5 µM [inhibitor, partial curve, poor fit]
52 | Cc1nc(C)c(-c2csc(NCc3ccco3)n2)s1 | inactive
53 | Cc1ccc(CCC(=O)Nc2ccc(Cl)cc2)o1 | inconclusive: 11.7 µM [inhibitor, single point]
54 | COc1cc([N+](=O)[O-])ccc1-c1ccc(/C=N\n2cnnc2)o1 | inconclusive: 10.4 µM [inhibitor, single point]
55 | CC(OC(=O)/C=C/c1ccccc1)C(=O)Nc1ccc2c(c1)OCCO2 (stereo not given) | inconclusive: 18.5 µM [inhibitor, single point]
56 | Cc1c(NC(=O)OCc2ccccc2)c(=O)n(-c2ccccc2)n1C | inconclusive: 3.7 µM [inhibitor, full curve, poor fit]
57 | COc1ccc(C(CC(=O)c2ccc(C)cc2)Nc2ccc([N+](=O)[O-])cc2)cc1 (stereo not given) | inconclusive: 14.7 µM [inhibitor, single point]
58 | Cc1cc(N2CCC(C)CC2)n2ncc(-c3ccccc3)c2n1 | inactive
59 | O=C(CCC(=O)NNC(=O)c1ccc(Cl)cc1Cl)NCc1ccccc1 | inconclusive: 13.1 µM [inhibitor, single point]
60 | CC(CNc1ccc([N+](=O)[O-])cc1)NC(=O)c1ccccc1Br (stereo not given) | inconclusive: 18.5 µM [inhibitor, single point]
61 | O=[N+]([O-])c1ccc(N2CCN(S(=O)(=O)c3ccccc3)CC2)cc1 | inactive
62 | CN1OC(COC(=O)c2ccccc2)CC1c1ccccc1 (stereo not given) | inactive
63 | Cc1cc(Cl)ccc1OCC(=O)NCCOc1nc(N2CCOCC2)nc(N2CCOCC2)n1 | inconclusive: 0.465 µM [inhibitor, full curve, poor fit]
64 | CCc1ccc(OCCn2ccnc2)cc1 | inconclusive: 18.5 µM [inhibitor, single point]
65 | CC(C)(C)c1ccc(C(=O)NC2CCN(Cc3ccccc3)CC2)cc1 | active: 3.29 µM
66 | O=C(Cc1ccc(S(=O)(=O)N2CCOCC2)s1)Oc1ccc(F)cc1 | inactive
67 | O=C(Nc1ccc(-c2cccc(F)c2)cc1)C1CCCN(Cc2ccccn2)C1 (stereo not given) | inconclusive: 3.7 µM [inhibitor, partial curve, poor fit]
68 | Cc1cccc(OCC(=O)Nc2ccccc2N2CCCC2)c1C | inconclusive: 9.28 µM [inhibitor, single point]
69 | CC(C)(C)NC(=O)NC(=O)CN1CC=C(c2ccccc2)CC1 | inconclusive: 13.1 µM [inhibitor, single point]
70 | O=C(NCC1CCCC(CNC(=O)Nc2ccc(Cl)cn2)C1)Nc1ccc(Cl)cn1 (stereo not given) | inconclusive: 5.22 µM [inhibitor, partial curve]

Another view of six compounds above:
Row	Compound	Potency
55	CC(OC(=O)/C=C/c1ccccc1)C(=O)Nc1ccc2c(c1)OCCO2 (stereo not given)	inconclusive: 18.5 µM [inhibitor, single point]
58	Cc1cc(N2CCC(C)CC2)n2ncc(-c3ccccc3)c2n1	inactive
59	O=C(CCC(=O)NNC(=O)c1ccc(Cl)cc1Cl)NCc1ccccc1	inconclusive: 13.1 µM [inhibitor, single point]
61	O=[N+]([O-])c1ccc(N2CCN(S(=O)(=O)c3ccccc3)CC2)cc1	inactive
67	O=C(Nc1ccc(-c2cccc(F)c2)cc1)C1CCCN(Cc2ccccn2)C1 (stereo not given)	inconclusive: 3.7 µM [inhibitor, partial curve, poor fit]
68	Cc1cccc(OCC(=O)Nc2ccccc2N2CCCC2)c1C	inconclusive: 9.28 µM [inhibitor, single point]
